Some of the results follow.
These targets were tested with NCC(=O)Nc1ccc(-n2nc(C(F)(F)F)cc2-c2ccc3c(ccc4ccccc43)c2)cc1 (assay: log2 fold change, soluble protein after heating vs DMSO (PISA); higher = thermal stabilisation; K562 lysate, 10 uM; active = over 0.2 and 3.5 SD of the protein, either way, in both replicates (recomputed)).
Procedure, shortened: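 Thermal stability, expressed as log-two fold change relative to solvent controls, is given from duplicates. Crude K562 extract in PBS pH 7.4 with 1 mM MgCl2, at 1 mg/mL protein, was treated with 10 μM compound for 30 min and heated in aliquots for 3 min across 48°C-58°C. After pooling, adjustment to 0.5% NP-40 at 4°C and centrifugation at 21,000xg for 90 min, supernatant protein was measured by TMTpro 16plex LC-MS/MS with channel sums equalised.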

Amino acid sequences for entries named in this document (tags omitted). A change or cut given only in a name is not applied to a line headed by its entry.
UniProt Q96I23: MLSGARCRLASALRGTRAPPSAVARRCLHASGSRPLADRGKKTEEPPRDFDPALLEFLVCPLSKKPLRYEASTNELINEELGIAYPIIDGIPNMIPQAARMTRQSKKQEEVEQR
UniProt Q8WUD1: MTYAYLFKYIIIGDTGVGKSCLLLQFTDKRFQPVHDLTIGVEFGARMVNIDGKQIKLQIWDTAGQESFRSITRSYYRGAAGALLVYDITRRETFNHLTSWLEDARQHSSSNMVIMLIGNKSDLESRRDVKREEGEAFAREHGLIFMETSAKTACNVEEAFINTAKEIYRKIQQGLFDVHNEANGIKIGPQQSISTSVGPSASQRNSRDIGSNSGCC
UniProt Q9H974: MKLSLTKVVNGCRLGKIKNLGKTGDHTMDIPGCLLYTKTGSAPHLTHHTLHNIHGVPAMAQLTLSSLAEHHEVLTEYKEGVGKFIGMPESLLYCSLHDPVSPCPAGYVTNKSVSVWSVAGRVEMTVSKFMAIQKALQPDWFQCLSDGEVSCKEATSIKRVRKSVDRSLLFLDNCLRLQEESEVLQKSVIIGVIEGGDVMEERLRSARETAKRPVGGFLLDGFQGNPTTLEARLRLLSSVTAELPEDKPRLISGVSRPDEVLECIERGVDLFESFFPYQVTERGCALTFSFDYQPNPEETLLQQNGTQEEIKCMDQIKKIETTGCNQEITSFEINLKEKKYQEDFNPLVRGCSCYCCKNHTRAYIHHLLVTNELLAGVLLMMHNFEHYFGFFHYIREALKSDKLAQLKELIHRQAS
UniProt Q6WKZ4: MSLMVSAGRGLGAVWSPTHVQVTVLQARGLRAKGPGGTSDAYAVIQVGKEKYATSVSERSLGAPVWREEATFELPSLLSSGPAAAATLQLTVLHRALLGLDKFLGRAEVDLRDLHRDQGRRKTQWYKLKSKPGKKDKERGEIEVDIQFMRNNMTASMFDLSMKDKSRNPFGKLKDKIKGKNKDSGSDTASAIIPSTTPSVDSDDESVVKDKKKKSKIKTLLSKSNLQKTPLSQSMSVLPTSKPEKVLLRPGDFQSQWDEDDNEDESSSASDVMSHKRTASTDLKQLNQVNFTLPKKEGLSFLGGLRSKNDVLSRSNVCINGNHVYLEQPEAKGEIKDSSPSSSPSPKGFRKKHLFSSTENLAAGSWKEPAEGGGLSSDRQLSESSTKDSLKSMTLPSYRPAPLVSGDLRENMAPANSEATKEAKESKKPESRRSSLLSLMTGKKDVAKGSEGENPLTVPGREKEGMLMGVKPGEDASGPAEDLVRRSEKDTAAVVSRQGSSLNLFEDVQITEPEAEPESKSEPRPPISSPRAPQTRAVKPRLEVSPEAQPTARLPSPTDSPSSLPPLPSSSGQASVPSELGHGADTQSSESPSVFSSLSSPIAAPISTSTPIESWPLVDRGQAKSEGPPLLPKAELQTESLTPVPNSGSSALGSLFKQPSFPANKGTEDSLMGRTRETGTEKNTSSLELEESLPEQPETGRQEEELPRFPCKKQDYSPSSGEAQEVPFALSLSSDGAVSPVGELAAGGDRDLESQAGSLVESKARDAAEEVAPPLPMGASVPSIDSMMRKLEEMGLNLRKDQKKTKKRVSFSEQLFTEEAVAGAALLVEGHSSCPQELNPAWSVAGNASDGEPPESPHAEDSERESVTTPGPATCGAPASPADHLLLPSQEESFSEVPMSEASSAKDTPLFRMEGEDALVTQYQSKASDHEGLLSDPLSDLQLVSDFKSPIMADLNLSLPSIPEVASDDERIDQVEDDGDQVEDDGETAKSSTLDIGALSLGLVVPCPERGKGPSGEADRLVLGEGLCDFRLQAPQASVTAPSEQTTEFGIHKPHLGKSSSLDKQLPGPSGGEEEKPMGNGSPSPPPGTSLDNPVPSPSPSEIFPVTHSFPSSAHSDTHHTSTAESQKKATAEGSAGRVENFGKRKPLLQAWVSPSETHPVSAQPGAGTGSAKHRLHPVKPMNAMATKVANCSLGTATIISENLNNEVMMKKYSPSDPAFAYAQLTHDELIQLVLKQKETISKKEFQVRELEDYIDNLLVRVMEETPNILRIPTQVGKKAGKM
UniProt P49792, whole entry, looked up: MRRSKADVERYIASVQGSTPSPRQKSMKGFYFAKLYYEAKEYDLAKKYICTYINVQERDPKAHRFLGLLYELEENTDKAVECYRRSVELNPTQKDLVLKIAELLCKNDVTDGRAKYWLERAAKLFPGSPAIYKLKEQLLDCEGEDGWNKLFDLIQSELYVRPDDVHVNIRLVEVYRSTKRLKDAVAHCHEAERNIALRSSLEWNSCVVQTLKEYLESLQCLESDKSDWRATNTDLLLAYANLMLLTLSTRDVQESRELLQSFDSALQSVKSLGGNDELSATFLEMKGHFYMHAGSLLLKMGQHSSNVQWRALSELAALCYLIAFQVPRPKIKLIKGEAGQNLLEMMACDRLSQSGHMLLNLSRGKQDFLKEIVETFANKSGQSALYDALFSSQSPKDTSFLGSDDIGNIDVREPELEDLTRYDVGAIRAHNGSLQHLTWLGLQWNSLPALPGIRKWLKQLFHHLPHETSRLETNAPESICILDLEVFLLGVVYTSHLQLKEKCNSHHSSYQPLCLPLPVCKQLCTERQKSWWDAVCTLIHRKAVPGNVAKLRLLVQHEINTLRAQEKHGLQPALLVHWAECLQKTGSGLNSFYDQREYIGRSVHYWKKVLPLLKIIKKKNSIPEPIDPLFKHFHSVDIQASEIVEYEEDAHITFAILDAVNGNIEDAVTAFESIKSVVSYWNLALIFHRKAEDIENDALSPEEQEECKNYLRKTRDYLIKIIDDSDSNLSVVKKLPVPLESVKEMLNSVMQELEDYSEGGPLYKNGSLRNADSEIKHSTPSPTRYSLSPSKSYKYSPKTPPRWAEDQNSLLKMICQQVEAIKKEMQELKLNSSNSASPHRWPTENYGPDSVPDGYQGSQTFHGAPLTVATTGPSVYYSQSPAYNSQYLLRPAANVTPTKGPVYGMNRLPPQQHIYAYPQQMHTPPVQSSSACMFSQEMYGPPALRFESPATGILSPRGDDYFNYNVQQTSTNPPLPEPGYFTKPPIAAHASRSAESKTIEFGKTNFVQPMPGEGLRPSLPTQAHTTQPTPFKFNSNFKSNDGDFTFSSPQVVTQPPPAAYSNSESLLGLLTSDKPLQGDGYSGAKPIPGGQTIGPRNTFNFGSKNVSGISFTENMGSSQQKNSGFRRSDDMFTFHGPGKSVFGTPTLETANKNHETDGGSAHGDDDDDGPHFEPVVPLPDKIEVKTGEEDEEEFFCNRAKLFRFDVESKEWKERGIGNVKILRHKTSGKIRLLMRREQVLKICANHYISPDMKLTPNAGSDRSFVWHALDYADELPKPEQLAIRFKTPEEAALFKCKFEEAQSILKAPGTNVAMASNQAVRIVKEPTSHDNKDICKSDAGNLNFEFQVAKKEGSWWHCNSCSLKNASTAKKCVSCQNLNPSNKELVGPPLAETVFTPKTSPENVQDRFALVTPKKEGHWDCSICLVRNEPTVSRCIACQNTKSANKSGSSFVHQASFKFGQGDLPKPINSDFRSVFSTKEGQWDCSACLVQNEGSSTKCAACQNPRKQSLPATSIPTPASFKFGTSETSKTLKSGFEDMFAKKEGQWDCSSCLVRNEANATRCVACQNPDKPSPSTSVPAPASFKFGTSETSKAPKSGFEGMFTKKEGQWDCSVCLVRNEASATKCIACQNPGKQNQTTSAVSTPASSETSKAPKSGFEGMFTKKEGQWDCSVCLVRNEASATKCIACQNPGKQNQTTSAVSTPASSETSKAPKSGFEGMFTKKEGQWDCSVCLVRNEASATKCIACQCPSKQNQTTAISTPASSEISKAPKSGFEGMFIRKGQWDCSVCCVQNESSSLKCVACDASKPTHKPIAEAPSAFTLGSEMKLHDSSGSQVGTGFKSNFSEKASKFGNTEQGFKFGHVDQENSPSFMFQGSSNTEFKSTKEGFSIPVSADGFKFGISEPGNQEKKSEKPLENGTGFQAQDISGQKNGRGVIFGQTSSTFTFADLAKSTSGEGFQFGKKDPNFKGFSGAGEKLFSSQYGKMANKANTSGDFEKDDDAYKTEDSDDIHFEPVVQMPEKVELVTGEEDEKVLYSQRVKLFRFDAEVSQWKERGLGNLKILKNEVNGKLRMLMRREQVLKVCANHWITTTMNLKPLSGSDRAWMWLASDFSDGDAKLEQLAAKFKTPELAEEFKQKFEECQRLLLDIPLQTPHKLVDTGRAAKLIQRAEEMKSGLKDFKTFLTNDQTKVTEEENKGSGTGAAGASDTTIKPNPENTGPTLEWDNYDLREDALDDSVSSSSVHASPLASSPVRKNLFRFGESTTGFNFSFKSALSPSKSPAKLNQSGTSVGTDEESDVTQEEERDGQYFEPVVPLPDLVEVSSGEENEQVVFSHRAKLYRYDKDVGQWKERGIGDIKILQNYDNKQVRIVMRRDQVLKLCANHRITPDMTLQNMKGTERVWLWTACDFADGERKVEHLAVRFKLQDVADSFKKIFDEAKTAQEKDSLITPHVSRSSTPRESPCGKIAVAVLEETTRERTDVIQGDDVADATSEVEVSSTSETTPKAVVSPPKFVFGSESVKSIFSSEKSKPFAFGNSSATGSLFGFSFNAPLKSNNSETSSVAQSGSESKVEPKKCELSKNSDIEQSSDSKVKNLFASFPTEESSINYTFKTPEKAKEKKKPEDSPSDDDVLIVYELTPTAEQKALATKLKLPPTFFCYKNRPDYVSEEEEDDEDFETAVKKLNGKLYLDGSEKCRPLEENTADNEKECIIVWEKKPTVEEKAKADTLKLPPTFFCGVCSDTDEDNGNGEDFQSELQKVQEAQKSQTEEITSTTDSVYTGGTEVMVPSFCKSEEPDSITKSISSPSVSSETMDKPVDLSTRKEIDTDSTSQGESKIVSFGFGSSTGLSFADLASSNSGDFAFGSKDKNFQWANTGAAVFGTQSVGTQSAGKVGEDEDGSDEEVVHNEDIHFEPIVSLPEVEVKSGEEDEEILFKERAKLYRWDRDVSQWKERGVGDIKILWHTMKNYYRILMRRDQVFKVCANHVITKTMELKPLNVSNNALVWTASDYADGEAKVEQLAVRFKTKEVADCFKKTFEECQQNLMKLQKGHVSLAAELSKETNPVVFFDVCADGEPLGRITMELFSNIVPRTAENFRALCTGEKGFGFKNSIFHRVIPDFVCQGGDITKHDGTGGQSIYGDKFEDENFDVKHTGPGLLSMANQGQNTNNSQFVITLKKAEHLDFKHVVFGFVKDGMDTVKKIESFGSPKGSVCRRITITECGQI
UniProt Q9NR77: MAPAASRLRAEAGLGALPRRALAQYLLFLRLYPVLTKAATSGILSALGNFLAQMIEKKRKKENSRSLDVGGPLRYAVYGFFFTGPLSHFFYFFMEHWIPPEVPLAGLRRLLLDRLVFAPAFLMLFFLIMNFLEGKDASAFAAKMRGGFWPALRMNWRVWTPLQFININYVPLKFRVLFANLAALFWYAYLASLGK
UniProt P61018: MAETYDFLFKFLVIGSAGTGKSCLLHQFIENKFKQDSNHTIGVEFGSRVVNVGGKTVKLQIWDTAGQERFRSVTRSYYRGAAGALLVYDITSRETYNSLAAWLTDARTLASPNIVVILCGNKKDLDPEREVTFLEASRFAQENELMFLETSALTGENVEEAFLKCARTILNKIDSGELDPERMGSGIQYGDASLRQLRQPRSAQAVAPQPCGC
UniProt Q969Q5: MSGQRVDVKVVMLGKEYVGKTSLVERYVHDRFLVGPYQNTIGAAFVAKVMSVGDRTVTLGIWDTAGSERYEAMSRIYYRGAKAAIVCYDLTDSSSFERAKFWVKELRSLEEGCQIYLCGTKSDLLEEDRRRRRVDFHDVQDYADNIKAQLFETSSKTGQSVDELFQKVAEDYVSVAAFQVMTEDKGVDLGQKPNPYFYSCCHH
UniProt Q9Y6I8: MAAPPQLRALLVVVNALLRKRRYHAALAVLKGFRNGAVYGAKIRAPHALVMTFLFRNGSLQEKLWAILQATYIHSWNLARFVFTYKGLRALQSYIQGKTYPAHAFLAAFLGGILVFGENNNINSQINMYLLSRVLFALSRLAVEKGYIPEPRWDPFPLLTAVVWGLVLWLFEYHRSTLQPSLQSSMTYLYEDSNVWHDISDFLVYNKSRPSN
UniProt Q9UL25: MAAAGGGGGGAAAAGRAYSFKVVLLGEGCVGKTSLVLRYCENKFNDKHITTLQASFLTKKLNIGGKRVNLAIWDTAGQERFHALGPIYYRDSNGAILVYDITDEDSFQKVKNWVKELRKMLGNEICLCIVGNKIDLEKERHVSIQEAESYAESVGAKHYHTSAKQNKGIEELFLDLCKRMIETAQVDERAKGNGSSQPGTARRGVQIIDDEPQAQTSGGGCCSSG
UniProt P43487, whole entry, looked up: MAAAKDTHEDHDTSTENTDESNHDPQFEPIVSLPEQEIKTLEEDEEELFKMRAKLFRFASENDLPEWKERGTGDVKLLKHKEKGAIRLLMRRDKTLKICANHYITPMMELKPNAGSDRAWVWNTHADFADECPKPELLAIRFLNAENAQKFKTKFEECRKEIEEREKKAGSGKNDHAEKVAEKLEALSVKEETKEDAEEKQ

Row | Target | log2 fold change
1 | RALY (UniProt Q9UKM9) | inactive: -0.038
2 | PYURF (UniProt Q96I23) | active: -0.346
3 | RAB2B (UniProt Q8WUD1) | inactive: 0.029
4 | QTRT2 isoform 4 (UniProt Q9H974) | inactive: 0.004
5 | RAPGEF4 (UniProt Q8WZA2) | inactive: 0.219
6 | PYGL (UniProt P06737) | inactive: -0.013
7 | RAB6B (UniProt Q9NRW1) | inactive: -0.038
8 | RAN (UniProt P62826) | inactive: 0.002
9 | RAB11FIP1 (UniProt Q6WKZ4) | inactive: 0.014
10 | RANBP2 (UniProt P49792) | inactive: -0.01
11 | RAB20 (UniProt Q9NX57) | inactive: 0.024
12 | RAB8A (UniProt P61006) | inactive: -0.034
13 | RAPGEF1 isoform 3 (UniProt Q13905) | inactive: -0.011
14 | PXMP2 (UniProt Q9NR77) | inactive: 0.031
15 | RAB35 (UniProt Q15286) | inactive: 0.018
16 | PYCR3 (UniProt Q53H96) | inactive: 0.036

Some of the entries so far, tab-delimited.
Row	Target	log2 fold change
15	RAB35 (UniProt Q15286)	inactive: 0.018
16	PYCR3 (UniProt Q53H96)	inactive: 0.036

Next part.

Row | Target | log2 fold change
17 | RAB4B isoform 2 (UniProt P61018) | inactive: -0.046
18 | QPCTL (UniProt Q9NXS2) | inactive: -0.117
19 | RAB18 isoform 2 (UniProt Q9NP72) | inactive: -0.013
20 | RAB24 (UniProt Q969Q5) | inactive: 0.067
21 | RAF1 isoform 2 (UniProt P04049) | inactive: 0.126
22 | RAB32 (UniProt Q13637) | inactive: -0.081
23 | R3HCC1L, A0A384DVK4 | inactive: 0.109
24 | PXMP4 (UniProt Q9Y6I8) | inactive: 0.038
25 | RABGAP1L isoform 3 (UniProt Q5R372) | inactive: -0.005
26 | R3HDM4 (UniProt Q96D70) | inactive: -0.046
27 | R3HCC1 (UniProt Q9Y3T6) | inactive: 0.045
28 | RAB5C isoform 2 (UniProt P51148) | inactive: 0.027
29 | PYGB (UniProt P11216) | inactive: -0.024
30 | RAB21 (UniProt Q9UL25) | inactive: 0.017
31 | RACGAP1 (UniProt Q9H0H5) | inactive: -0.018
32 | RANBP1 (UniProt P43487) | inactive: -0.023
